At least one compound was matched to its structure with a doubt left.
Molecular target: T1, human adrenergic β2 receptor (Homo sapiens, UniProt P07550)
T1 construct: purchased Perkin Elmer; host or cells: Sf9 cells
Assay: Human adrenergic β2 receptor binding assay (3H-CGP12177, Sf9 membranes)
Conditions: ratio of human β1 IC50 to human β2 IC50
Procedure: Human Adrenergic β1 and β2 Receptor Binding Assays
The study of binding to human adrenergic β1 and β2 receptors was performed using commercial membranes prepared from Sf9 cells where they are overexpressed (Perkin Elmer).
The membrane suspensions (16 μg/well for β1 and 5 μg/well for β2) in assay buffer, 75 mM Tris/HCl with 12.5 mM MgCl2 and 2 mM EDTA pH=7.4, were incubated with 0.14 nM 3H-CGP12177 (Amersham) and different concentrations of the test compounds, in a final volume of 250 μl, in GFC Multiscreen 96 well plates (Millipore) pretreated with +0.3% PEI. Non specific binding was measured in the presence of 1 μM propanolol. Incubation was for 60 minutes at room temperature and with gentle shaking. The binding reactions were terminated by filtration and washing with 2.5 volumes of Tris/HCl 50 mM pH=7.4. The affinity of each test compound to the receptor was determined by using at least six different concentrations ran in duplicate. IC50 values were obtained by non-linear regression using SAS.

## O=C(NCC12CC3CC(CC(C3)C1)C2)Nc1cccc(CCNCC(O)c2ccc(O)c3[nH]c(=O)ccc23)c1 [Example 23, N-(1-adamantylmethyl)-N′-[3-(2-{[(2R,S)-2-hydroxy-2-(8-hydroxy-2-oxo-1,2-dihydroquinolin-5-yl)ethyl]amino}ethyl)phenyl]urea]
  β1/β2 ratio: 6.1
